These are yes or no findings as the source states them, for the method shown. Binding seen in cells or lysates may run through a third protein. Some binding calls cover weakened binding; strength is not graded here.
Key:
[1] = target: TRPV4 channel (mouse (endogenous in detrusor muscle)) (UniProt Q9EPK8); assay: co-IP; 500 µg of murine detrusor membrane fraction (100,000 x g pellet resuspended in lysis buffer with 0.1% SDS), pre-cleared; rabbit TRPV4 or rabbit SK3 antibody crosslinked to protein A/G-Dynabeads, 2 hours at 4 °C; eluates analysed by Wes capillary western; non-immune rabbit IgG as control
[2] = target: small conductance Ca2+-activated K+ (SK3) channel (mouse (endogenous in detrusor muscle)) (UniProt P58391); assay: proximity ligation; isolated murine detrusor PDGFRα+ cells (eGFP), fixed in 4% paraformaldehyde and permeabilized; goat anti-TRPV4 and rabbit anti-SK3 antibodies, Duolink detection
[3] = target: small conductance Ca2+-activated K+ (SK3) channel (mouse (endogenous in detrusor muscle)) (UniProt P58391); assay: co-IP; 500 µg of murine detrusor membrane fraction (100,000 x g pellet resuspended in lysis buffer with 0.1% SDS), pre-cleared; rabbit TRPV4 or rabbit SK3 antibody crosslinked to protein A/G-Dynabeads, 2 hours at 4 °C; eluates analysed by Wes capillary western; non-immune rabbit IgG as control

Chains of the proteins cited; added tags and fusions are not shown.
UniProt Q9EPK8: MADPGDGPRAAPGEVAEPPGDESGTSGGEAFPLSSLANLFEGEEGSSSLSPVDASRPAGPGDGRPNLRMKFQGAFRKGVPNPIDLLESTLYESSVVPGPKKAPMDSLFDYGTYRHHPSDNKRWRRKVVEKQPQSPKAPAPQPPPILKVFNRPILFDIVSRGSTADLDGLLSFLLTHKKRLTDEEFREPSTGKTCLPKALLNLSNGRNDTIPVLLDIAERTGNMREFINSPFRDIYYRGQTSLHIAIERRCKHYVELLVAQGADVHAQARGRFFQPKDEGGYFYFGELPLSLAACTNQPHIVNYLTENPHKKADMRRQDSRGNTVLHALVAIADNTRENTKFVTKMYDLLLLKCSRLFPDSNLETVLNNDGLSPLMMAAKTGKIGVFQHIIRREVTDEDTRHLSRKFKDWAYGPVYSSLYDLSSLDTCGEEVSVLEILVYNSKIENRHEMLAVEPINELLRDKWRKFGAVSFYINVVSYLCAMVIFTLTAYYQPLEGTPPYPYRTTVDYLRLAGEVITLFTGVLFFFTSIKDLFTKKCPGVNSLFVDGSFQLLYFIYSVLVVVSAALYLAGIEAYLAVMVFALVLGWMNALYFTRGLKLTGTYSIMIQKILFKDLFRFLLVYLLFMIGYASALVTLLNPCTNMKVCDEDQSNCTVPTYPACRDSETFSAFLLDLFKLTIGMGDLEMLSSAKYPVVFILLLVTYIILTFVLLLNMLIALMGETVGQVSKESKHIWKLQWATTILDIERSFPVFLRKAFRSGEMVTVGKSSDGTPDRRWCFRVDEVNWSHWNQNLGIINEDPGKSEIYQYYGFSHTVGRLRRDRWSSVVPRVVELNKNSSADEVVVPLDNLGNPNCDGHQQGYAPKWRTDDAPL
UniProt P58391: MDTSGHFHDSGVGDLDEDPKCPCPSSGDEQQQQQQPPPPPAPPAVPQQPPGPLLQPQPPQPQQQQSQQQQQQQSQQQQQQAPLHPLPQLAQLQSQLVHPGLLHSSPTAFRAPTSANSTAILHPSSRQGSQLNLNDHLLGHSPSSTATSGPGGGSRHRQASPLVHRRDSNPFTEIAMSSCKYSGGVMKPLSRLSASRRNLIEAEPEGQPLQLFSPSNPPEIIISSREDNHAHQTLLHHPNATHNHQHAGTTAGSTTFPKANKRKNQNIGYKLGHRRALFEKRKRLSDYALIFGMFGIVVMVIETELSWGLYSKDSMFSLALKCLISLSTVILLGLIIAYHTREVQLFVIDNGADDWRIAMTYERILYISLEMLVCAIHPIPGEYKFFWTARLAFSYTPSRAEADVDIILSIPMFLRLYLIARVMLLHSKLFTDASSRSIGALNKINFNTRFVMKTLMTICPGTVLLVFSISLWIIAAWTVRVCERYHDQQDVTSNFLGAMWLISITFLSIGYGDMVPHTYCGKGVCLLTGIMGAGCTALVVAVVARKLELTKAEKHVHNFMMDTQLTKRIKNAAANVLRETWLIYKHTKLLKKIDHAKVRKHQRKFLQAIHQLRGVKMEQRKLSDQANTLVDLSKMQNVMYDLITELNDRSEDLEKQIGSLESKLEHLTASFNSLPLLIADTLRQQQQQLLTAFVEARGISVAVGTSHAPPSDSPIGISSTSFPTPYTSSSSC

| Substance | binding [1] | binding [2] | binding [3] |
| --- | --- | --- | --- |
| small conductance Ca2+-activated K+ (SK3) channel (from UniProt P58391 1-732) | binds |  |  |
| TRPV4 channel (from UniProt Q9EPK8 1-871) |  | binds | binds |

— paper PMC5613012
